In PubChem BioAssay AID1508600 (Functional Genomics Laboratory (NCATS/FGL), 2020):
Out of some 53,000 sequences screened, about 3,700 (7%) were called active.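 The calls were made as follows: active = gene knockdowns whose robust z-score for IL-1 alpha signal is at least 2 or at most -2, so actives lie on both sides; inactive = the rest.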 Some of the results follow.

Assay: Components of the Cytosolic LPS Sensing Pathway: Gene Identification via Genome-wide siRNA Screen;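 also: robust z of the log signal after scaling to non-targeting control siRNA wells of the plate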
Settings: RAW264.7 macrophages, IL-1a HTRF, actives lie on both sides, screened at 100 nM (by protocol), cells primed 5 h with Pam3CSK4 first
Outline: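 IL-1a HTRF of supernatants after 24 hour LipidA transfection of Pam3CSK4-primed (5 hours) RAW264.7 cells, 48h post-siRNA transfection (100 nM). Scores: percent of plate negative-control median, then log-based robust z-score.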

z-score, inactive:
GGUUGUUCUUAACAUAACCTT against Ginm1 0.0306
GGACCUGGAAAUAAUUGUUTT against Pex5l 0.574
GGUUGAUGCCGUGAACUCUTT against Pdxk -0.634
CCUGCGUUAAGUGAUAAAGTT against Blm 0.171
GCCGCACUGUAACUUCAUCTT against D830039M14Rik 0.896
CCCACGAAGCUAAGUGGAATT against Stkld1 0.067
GGUAAAGUGACCGAACACUTT against Tigar 1.02
GGAGUUUGUCAACUUCUUCTT against Mcoln3 -0.716
CCUAUAAAGACUUAACGAATT against Mettl24 0.947
GGUGAGUCAACUGUAUUUCTT against Poc1a -0.342
CCUCAUAACAACGACUCCUTT against Cxcr5 -0.687
GGAAGGUCAGAACAACGACTT against Tpcn1 -0.92
GGAGACAUCCUAAAAUUUGTT against Adcy10 -0.777
GGAAACUUCUGCACUUGGGTT against 4930474M22Rik 0.558
CCGGUGGUAAUUUCACCCUTT against C2 -1.01
GGCCCAUCUAAGCUACAGATT against Rab40b -1.07
CCAUCAAAGUCAUCGACGGTT against Birc6 -0.427
GGAACUGUAUGAAAUGCUGTT against Pdgfb 0.0794
CGUGGAGUGUUAAAGAAUUTT against Il23r 0.373
GCUUAUGAUUCCAAGGCAGTT against Serpina6 0.9
GCAAUGGACCUGGUACAAGTT against Myg1 -0.922
GGUCACAACUUUUGAGCACTT against Gna11 -0.336
GGUGGAACACAAUGGAUGCTT against Vwc2l -0.246
GGUUCGCCCUUGGAAAUGGTT against Dmap1 -0.258
GCAGAACUCUGGAAUCAAGTT against Pgap3 0.401
GGGCACGGUAUUCCAUUUCTT against Utp4 -0.563
GGGUGUGAUCCAAGCUAUCTT against Rtn4 1.61
GGUGGGAAAAAACAUAAGGTT against Fam149a 0.462
GCUGUUAUAACCUUGUUACTT against Rspry1 1.19
GGAAGCAUCCUUUGAUGAGTT against Afm -1.1
GGAGAACAGACACAGGGUGTT against Dlgap5 -0.284
GCGGACAGGCACAGAAAAATT against Usp3 -0.75
GCAAGGAAAAUCUAUACCGTT against Rgs2 -0.954
GCUGUCUUUGAACUAUAUATT against Cd200r4 -0.439
GCUUCAGAACAAGUCCCUGTT against Castor1 -0.252
CCGAAAUCCUACAUAUAUGTT against B430209F14Rik -0.306
GGUAGCUAUCAAGGUCAUCTT against Hunk -0.187
CGCAGAAGUGCGUGAUUUCTT against Gsdme 1.73
GGCCACCUUCUUUGAGGUATT against Snai1 1.11
GGAAAGAGAACAUAAAAGATT against Pla2g4a -0.995
CCUUGUAUUCCCAUCAUGCTT against AI467606 -0.111
CCACUAUUAAACUUCUCAATT against Pex3 0.32
GAACUGGAGAUCUUCGAACTT against Ltc4s 0.532
GCUUUACGUUCAAGUUUAGTT against Ranbp2 -0.382
GGUGACUGACAUGAUGAUATT against Pard6b -0.449
GCUAUUUUCAGCGAGCUGUTT against Lmo3 -0.874
GGCAUUGAUUGAUUCCUGUTT against Dnpep 0.897
GGUAAGGACUAUUUGAAUUTT against Lpar1 -0.429
CGAAAGCAUUGCCUACUUUTT against Anks3 0.843
CCAAUAAGAAUUCAGAUCGTT against Ufd1 -0.15
CGUGAAUUAUGGAAAUUAGTT against P2ry10b 0.178
GGCCAGUGGGAAGUGAAGATT against Sec13 0.124
GGGAAGUCACUUUUGUUCCTT against Top2a 0.244
GGGAAAUGUUGUAGUAGAUTT against Rars2 0.535
GGAUUCAUCAUCUACCCGGTT against C1ql4 -1.08
GGCUAAAACUACAAAGAAGTT against Rpl36a -1.1
GGAGUUCAUCCUCACAGAUTT against Vdr -0.524
GCACCGUUGAAGUCAAGGUTT against Tdrd6 -1.58
CCAUUACAUCCAUUUGAUUTT against Cfap206 0.328
GGUCCUGCUUCGUUAUCAGTT against Aldh6a1 -0.487
GGGAGGACACUAUUUGAUUTT against Slco2b1 -0.888
GGAGUACGAGAAGAGCUCUTT against Kcnq2 -1.05
GGAGCAACACUUGCGUACUTT against Ccnq 1.32
CCCUGAAUAAGGCUGAUCUTT against Krt32 -0.801

A stretch of the results above, as a working copy:
z-score, inactive:
GGUAAAGUGACCGAACACUTT against Tigar 1.02
GGAGUUUGUCAACUUCUUCTT against Mcoln3 -0.716
CCUAUAAAGACUUAACGAATT against Mettl24 0.947
GGUGAGUCAACUGUAUUUCTT against Poc1a -0.342
CCUCAUAACAACGACUCCUTT against Cxcr5 -0.687
GGAAGGUCAGAACAACGACTT against Tpcn1 -0.92
GGAGACAUCCUAAAAUUUGTT against Adcy10 -0.777
GGAAACUUCUGCACUUGGGTT against 4930474M22Rik 0.558
CCGGUGGUAAUUUCACCCUTT against C2 -1.01
GGCCCAUCUAAGCUACAGATT against Rab40b -1.07
CCAUCAAAGUCAUCGACGGTT against Birc6 -0.427
GGAACUGUAUGAAAUGCUGTT against Pdgfb 0.0794
CGUGGAGUGUUAAAGAAUUTT against Il23r 0.373
GCUUAUGAUUCCAAGGCAGTT against Serpina6 0.9
GCAAUGGACCUGGUACAAGTT against Myg1 -0.922

Next part.

z-score, active:
CCACCCUGAUUUAAGAAGGTT against Ndufs3 2.53
GCUGAUUGAGCAUCCGAUGTT against Ggt1 2.78
GGCGGUACCUCUUCUUCAUTT against Aipl1 2.32
GCUGAAAUCCAGGAUAGAGTT against Zw10 -2.03
